Numbering of substitutions follows the chain as printed. No constants are given. Whether binding was seen depends on the method and setting. In cells and extracts the contact can be indirect. Some results given as binding are weak or reduced against the parent protein; the word gives no strength.

Amino acid sequences for entries named in this document (tags omitted). Residues count along the entry.
UniProt P35580: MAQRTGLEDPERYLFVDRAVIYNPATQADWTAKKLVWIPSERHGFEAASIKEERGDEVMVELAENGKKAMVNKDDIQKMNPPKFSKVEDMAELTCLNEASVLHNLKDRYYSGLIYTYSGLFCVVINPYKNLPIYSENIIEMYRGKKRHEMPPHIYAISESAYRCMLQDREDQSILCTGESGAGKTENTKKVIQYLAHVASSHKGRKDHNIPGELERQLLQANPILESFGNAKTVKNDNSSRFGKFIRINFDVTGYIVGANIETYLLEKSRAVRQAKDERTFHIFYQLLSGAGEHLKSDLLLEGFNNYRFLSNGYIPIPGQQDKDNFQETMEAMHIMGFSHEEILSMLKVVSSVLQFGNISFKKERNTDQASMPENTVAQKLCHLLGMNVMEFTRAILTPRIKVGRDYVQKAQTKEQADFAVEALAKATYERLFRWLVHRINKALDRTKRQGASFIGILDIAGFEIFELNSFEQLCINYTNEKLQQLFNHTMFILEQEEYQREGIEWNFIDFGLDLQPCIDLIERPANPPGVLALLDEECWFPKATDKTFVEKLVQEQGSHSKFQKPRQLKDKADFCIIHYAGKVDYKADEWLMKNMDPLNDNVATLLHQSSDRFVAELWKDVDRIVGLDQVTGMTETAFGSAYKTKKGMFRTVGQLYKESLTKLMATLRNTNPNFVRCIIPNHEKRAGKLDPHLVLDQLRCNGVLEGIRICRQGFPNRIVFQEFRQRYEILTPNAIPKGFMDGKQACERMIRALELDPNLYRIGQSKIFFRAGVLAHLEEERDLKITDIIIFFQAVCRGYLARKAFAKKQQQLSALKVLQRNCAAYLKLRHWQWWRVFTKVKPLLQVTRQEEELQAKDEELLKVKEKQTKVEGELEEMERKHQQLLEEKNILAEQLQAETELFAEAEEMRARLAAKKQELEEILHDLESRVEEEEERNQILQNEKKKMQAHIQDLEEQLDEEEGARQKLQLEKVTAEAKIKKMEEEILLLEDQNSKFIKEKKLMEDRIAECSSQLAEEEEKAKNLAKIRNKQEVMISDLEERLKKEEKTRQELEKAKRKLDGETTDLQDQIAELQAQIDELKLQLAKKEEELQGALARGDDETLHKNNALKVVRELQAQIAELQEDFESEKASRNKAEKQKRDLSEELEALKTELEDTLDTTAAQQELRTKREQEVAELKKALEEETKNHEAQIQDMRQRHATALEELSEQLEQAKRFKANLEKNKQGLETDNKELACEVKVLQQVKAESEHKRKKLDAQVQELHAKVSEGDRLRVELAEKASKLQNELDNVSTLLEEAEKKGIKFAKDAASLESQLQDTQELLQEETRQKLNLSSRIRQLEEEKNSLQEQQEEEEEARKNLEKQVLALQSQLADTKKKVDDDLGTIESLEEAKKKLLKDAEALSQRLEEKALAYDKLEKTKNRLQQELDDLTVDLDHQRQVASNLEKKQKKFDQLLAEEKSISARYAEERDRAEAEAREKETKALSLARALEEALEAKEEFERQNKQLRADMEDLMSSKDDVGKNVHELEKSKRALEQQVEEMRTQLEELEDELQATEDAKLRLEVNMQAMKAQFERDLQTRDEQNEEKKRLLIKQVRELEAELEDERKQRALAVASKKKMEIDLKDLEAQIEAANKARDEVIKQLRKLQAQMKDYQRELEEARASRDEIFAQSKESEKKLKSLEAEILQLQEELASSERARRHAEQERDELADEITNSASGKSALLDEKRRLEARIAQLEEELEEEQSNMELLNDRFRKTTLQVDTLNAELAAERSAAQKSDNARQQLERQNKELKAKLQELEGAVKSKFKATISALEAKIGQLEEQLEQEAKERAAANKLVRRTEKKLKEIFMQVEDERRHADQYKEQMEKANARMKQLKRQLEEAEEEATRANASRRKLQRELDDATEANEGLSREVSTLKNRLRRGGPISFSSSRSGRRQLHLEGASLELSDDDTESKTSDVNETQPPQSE
UniProt P02751, residues 32-2477: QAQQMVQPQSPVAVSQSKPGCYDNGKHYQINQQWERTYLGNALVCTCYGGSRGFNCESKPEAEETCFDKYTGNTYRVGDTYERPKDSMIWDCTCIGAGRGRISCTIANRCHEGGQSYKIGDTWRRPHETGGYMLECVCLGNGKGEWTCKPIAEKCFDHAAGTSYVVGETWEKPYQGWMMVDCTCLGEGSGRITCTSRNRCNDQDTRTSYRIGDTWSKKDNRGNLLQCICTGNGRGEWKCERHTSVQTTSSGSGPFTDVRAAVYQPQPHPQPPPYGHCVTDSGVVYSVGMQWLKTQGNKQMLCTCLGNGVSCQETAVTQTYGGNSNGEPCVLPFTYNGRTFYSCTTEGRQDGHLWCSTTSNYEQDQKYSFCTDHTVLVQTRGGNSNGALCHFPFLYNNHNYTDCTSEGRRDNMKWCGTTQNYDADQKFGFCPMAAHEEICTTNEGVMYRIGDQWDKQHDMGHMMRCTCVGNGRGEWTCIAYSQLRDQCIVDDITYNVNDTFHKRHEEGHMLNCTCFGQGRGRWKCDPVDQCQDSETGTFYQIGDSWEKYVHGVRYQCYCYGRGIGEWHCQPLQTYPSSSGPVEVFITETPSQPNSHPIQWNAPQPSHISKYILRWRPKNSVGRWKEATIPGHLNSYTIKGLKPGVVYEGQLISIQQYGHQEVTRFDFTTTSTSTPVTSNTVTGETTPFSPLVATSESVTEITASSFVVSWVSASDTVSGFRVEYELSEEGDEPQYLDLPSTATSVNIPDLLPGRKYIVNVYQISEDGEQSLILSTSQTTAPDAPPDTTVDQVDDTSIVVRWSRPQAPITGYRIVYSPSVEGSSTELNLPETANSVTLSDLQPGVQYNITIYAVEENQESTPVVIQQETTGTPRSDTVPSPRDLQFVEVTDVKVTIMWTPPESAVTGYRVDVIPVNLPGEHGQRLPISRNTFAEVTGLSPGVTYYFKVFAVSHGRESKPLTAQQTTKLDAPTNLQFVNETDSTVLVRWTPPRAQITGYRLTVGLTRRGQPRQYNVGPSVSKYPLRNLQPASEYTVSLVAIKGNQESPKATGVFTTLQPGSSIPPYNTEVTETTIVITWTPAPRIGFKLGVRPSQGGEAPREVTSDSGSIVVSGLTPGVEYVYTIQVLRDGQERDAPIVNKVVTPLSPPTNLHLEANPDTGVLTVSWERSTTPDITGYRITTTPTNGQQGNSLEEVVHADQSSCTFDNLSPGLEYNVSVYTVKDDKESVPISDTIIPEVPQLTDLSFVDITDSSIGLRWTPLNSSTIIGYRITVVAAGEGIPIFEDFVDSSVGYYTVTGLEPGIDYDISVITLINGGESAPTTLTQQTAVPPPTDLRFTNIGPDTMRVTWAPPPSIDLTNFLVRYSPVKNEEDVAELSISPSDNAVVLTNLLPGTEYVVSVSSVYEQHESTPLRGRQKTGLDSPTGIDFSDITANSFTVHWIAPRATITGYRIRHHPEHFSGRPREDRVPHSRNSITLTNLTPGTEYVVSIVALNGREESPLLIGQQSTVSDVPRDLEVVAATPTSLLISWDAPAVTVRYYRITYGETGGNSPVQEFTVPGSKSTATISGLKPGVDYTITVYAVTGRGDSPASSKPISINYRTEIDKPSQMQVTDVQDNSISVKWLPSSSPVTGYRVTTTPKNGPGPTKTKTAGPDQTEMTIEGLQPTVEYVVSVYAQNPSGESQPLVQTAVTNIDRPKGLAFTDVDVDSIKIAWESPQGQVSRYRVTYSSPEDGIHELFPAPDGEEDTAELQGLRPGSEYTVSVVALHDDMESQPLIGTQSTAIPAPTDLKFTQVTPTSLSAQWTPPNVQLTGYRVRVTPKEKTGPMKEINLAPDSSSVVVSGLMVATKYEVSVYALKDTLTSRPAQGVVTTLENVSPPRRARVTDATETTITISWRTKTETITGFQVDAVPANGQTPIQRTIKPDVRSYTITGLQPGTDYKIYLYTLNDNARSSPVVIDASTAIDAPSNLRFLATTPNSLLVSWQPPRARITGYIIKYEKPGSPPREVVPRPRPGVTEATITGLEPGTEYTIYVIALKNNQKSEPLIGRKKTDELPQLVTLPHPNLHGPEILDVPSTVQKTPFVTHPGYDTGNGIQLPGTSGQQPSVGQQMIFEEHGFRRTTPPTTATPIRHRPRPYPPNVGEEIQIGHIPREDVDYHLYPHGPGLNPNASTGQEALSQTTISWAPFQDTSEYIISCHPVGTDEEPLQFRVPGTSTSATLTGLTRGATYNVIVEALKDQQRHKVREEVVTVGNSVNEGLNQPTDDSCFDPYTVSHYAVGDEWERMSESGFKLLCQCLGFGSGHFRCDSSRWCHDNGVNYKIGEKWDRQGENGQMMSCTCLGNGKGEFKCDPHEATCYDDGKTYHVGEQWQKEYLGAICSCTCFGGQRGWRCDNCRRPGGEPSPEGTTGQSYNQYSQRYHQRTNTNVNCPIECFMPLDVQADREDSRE

The target in assay [1] is Myosin-10 (human) (Homo sapiens) (UniProt P35580). Description: co-IP; precipitation with an anti-myosin10 antibody from human control and patient myotube samples; fibronectin detected.
The target in assay [2] is T1, FKRP of the LGMD2I patient myotubes (p.Leu276Ile) (human (endogenous in patient myotubes)) (UniProt Q9H9S5).
T1 sequence: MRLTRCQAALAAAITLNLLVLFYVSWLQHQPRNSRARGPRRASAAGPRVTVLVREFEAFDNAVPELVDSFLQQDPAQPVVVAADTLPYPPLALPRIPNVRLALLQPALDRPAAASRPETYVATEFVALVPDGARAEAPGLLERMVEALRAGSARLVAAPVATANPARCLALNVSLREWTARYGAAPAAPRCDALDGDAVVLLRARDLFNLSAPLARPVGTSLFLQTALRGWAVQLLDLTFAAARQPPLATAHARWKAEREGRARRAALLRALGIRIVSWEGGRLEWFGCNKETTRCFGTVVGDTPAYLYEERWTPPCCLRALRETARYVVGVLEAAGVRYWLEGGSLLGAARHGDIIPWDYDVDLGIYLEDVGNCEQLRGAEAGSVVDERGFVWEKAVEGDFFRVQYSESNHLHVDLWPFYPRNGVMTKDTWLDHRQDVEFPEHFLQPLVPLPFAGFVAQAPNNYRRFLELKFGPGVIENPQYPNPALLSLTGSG
The assay is described as follows: co-IP; precipitation with a FKRP antibody (10 ug, protein-G dynabeads) from human control and patient myotube membrane-enriched samples; Myosin-10 detected.

Assay [3] concerns the target T2, FKRP (endogenous, healthy control human myotubes) (human (endogenous in human myotubes)) (UniProt Q9H9S5).
T2 sequence: T1 sequence with I276L
Described as above.

As to “Fibronectin (endogenous, human myotubes) (from UniProt P02751 32-2477)”, the binding result in assay [1] was “binds”.

As for “Myosin-10 (human) (from UniProt P35580 1-1976)”, the binding entry in assay [2] was “no binding”; in assay [3], “binds”.
